Measured values from paper PMC6588571.
No constants are given. Whether binding was seen depends on the method and setting. Some entries that bind do so weakly or less than the wild type. Sequences can lack the tags named with a protein.

T1: Enp1 fused to the Gal4 DNA-binding domain (S. cerevisiae) (UniProt P38333)
T1 sequence: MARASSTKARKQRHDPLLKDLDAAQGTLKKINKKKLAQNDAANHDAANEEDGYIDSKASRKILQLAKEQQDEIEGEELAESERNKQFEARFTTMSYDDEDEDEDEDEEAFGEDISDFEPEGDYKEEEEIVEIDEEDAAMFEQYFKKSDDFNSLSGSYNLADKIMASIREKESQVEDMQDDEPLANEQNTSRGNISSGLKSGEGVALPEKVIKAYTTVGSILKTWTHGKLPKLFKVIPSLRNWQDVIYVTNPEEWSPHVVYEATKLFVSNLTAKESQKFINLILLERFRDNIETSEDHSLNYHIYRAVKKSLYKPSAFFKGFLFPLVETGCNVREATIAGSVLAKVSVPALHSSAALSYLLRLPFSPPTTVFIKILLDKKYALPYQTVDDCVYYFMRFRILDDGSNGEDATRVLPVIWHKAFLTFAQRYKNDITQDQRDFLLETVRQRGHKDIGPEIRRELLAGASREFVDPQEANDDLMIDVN

T2: Ltv1 fused to the Gal4 activation domain (S. cerevisiae) (UniProt P34078)
T2 sequence: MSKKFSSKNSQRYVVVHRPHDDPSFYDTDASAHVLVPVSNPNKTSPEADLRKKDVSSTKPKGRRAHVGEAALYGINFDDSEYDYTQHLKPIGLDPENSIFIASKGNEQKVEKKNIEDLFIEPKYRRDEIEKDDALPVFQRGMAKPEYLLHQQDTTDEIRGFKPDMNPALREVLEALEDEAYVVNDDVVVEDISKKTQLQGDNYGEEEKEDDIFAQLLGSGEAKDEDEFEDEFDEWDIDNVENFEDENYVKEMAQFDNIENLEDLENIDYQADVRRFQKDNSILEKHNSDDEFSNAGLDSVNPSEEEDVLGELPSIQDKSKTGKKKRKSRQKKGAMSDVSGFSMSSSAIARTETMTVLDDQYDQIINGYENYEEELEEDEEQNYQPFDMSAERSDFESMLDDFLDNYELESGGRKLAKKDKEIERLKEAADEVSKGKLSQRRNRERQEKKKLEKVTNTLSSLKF

T3: full-length Hrr25 (494 aa) fused to the Gal4 DNA-binding domain (S. cerevisiae) (UniProt P29295)
T3 sequence: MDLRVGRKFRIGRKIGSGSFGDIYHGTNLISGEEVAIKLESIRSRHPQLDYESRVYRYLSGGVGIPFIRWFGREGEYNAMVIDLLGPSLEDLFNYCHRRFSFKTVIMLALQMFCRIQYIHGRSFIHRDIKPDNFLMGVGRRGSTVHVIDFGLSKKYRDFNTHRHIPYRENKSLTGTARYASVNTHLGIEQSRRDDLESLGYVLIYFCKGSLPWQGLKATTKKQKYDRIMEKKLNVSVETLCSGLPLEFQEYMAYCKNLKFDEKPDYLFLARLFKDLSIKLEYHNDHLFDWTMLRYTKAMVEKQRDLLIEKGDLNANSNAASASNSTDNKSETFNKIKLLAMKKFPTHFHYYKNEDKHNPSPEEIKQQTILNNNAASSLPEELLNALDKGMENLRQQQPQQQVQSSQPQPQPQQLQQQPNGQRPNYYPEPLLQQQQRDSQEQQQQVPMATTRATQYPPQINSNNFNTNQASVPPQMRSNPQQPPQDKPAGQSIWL

T4: C-terminally TAP-tagged Tsr1 (S. cerevisiae), Q07381
T4 chain: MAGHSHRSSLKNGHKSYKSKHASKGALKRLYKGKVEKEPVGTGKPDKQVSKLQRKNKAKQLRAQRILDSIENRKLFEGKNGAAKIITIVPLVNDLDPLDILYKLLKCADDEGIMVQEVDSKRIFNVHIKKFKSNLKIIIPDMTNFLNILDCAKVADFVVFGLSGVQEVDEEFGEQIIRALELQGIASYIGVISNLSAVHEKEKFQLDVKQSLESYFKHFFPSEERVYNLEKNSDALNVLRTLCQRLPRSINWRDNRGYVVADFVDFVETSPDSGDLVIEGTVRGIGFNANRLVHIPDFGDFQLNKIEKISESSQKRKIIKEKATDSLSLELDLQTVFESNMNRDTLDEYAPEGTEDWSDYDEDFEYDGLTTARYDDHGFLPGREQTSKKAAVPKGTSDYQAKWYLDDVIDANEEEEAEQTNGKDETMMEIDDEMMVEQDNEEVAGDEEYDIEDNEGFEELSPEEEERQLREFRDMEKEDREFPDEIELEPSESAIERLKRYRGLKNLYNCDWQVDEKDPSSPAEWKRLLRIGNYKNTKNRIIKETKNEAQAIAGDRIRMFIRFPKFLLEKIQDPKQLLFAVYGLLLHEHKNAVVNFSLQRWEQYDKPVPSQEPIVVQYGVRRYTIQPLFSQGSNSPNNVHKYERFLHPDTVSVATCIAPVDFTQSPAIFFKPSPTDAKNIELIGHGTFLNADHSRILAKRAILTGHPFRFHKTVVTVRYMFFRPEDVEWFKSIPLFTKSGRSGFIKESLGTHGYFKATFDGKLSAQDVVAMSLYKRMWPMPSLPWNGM

B1: Ltv1 fragment aa 218–271 fused to the Gal4 activation domain (domain or fragment, UniProt P34078 218-271)
chain: GSGEAKDEDEFEDEFDEWDIDNVENFEDENYVKEMAQFDNIENLEDLENIDYQA
B2: Ltv1 fragment aa 354–412 fused to the Gal4 activation domain (domain or fragment, UniProt P34078 354-412)
chain: MTVLDDQYDQIINGYENYEEELEEDEEQNYQPFDMSAERSDFESMLDDFLDNYELESGG
B3: Enp1 overexpressed under control of the ADH1 promoter (protein, UniProt P38333 1-483)
chain: MARASSTKARKQRHDPLLKDLDAAQGTLKKINKKKLAQNDAANHDAANEEDGYIDSKASRKILQLAKEQQDEIEGEELAESERNKQFEARFTTMSYDDEDEDEDEDEEAFGEDISDFEPEGDYKEEEEIVEIDEEDAAMFEQYFKKSDDFNSLSGSYNLADKIMASIREKESQVEDMQDDEPLANEQNTSRGNISSGLKSGEGVALPEKVIKAYTTVGSILKTWTHGKLPKLFKVIPSLRNWQDVIYVTNPEEWSPHVVYEATKLFVSNLTAKESQKFINLILLERFRDNIETSEDHSLNYHIYRAVKKSLYKPSAFFKGFLFPLVETGCNVREATIAGSVLAKVSVPALHSSAALSYLLRLPFSPPTTVFIKILLDKKYALPYQTVDDCVYYFMRFRILDDGSNGEDATRVLPVIWHKAFLTFAQRYKNDITQDQRDFLLETVRQRGHKDIGPEIRRELLAGASREFVDPQEANDDLMIDVN
B4: r-protein Rps15 (protein, UniProt Q01855 1-142)
chain: MSQAVNAKKRVFKTHSYRGVDLEKLLEMSTEDFVKLAPARVRRRFARGMTSKPAGFMKKLRAAKLAAPENEKPAPVRTHMRNMIIVPEMIGSVVGIYNGKAFNQVEIRPEMLGHYLGEFSITYTPVRHGRAGATTSRFIPLK
B5: Rps3 (endogenous), P05750 1-240 (protein)
chain: MVALISKKRKLVADGVFYAELNEFFTRELAEEGYSGVEVRVTPTKTEVIIRATRTQDVLGENGRRINELTLLVQKRFKYAPGTIVLYAERVQDRGLSAVAQAESMKFKLLNGLAIRRAAYGVVRYVMESGAKGCEVVVSGKLRAARAKAMKFADGFLIHSGQPVNDFIDTATRHVLMRQGVLGIKVKIMRDPAKSRTGPKALPDAVTIIEPKEEEPILAPSVKDYRPAEETEAQAEPVEA
B6: Dim1 (endogenous), P41819 1-318 (enzyme)
chain: MGKAAKKKYSGATSSKQVSAEKHLSSVFKFNTDLGQHILKNPLVAQGIVDKAQIRPSDVVLEVGPGTGNLTVRILEQAKNVVAVEMDPRMAAELTKRVRGTPVEKKLEIMLGDFMKTELPYFDICISNTPYQISSPLVFKLINQPRPPRVSILMFQREFALRLLARPGDSLYCRLSANVQMWANVTHIMKVGKNNFRPPPQVESSVVRLEIKNPRPQVDYNEWDGLLRIVFVRKNRTISAGFKSTTVMDILEKNYKTFLAMNNEMVDDTKGSMHDVVKEKIDTVLKETDLGDKRAGKCDQNDFLRLLYAFHQVGIHFS

Experiments:
[1] = target: T1, Enp1 fused to the Gal4 DNA-binding domain (S. cerevisiae); test: two-hybrid; baits fused to the GAL4 DNA-binding domain, preys fused to the GAL4 activation domain, co-transformed into reporter strain PJ69-4A; ten-fold serial dilutions spotted on SDC-Trp-Leu, SDC-Trp-Leu-His (growth: weak interaction) and SDC-Trp-Leu-Ade (growth: strong interaction)
[2] = target: T2, Ltv1 fused to the Gal4 activation domain (S. cerevisiae); test: two-hybrid; Y2H strains with Hrr25(1–394).K38R-BD and Ltv1 constructs-AD, transformed with empty plasmid or a URA3 plasmid for ENP1 overexpression under the ADH1 promoter; spotted on SDC-Leu-Trp-Ura, SDC-His-Leu-Trp-Ura and SDC-Ade-Leu-Trp-Ura
[3] = target: T3, full-length Hrr25 (494 aa) fused to the Gal4 DNA-binding domain (S. cerevisiae); test: two-hybrid; baits fused to the GAL4 DNA-binding domain, preys fused to the GAL4 activation domain, co-transformed into reporter strain PJ69-4A; ten-fold serial dilutions spotted on SDC-Trp-Leu, SDC-Trp-Leu-His (growth: weak interaction) and SDC-Trp-Leu-Ade (growth: strong interaction)
[4] = target: T4, C-terminally TAP-tagged Tsr1 (S. …); test: cryo-EM structure; pre-40S particles from rps20Δloop cells purified via Tsr1-TAP (lysis buffer with 5 mM MgCl2) and a 10–30% sucrose gradient; single particle analysis, classes C1-S20Δloop (3.47 Å) and C2-S20Δloop (3.79 Å); the partners stand in one ribonucleoprotein particle; conditions: remark: other sources report otherwise

Binder | binding [1] | binding [4] | also measured
B1 | binds | – | –
B2 | binds | – | –
B3 | – | – | binding [2]: binds
B4 | – | – | binding [3]: binds weakly
B5 | – | binds | –
B6 | – | binds | –
